{"source": "PubChem BioAssay (NCATS)", "key": {"[1]": {"assay": "qHTS of pediatric cancer cell lines to identify multiple opportunities for drug repurposing: Primary screen for Rh41 cells (AID 1347108); further: nearly all actives have a fitted effect of over 70% in size", "settings": "Rh41 rhabdomyosarcoma viability, CellTiter-Glo luminescence, 48 h; series mostly up to 46 µM", "in_short": "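Phenotypic viability qHTS, 48 h compound exposure, CellTiter-Glo luminescence read-out; multi-concentration dosing so that potency and efficacy derive directly from the primary screen's curves.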"}, "[2]": {"assay": "qHTS of pediatric cancer cell lines to identify multiple opportunities for drug repurposing: Confirmatory screen for BT-12 cells (AID 1347112); further: nearly all actives have a fitted effect of over 55% in size", "settings": "BT-12 rhabdoid tumor cells, viability; series mostly up to 45.9 µM", "in_short": "(§1)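 Cells (500-1,000/well) rested 5 h, then received compounds for 48 h; metabolically active cells were measured by CellTiter-Glo luminescence. Final concentrations spanned up to 46 µM (MIPE, 11-point) or 0.59 nM-46 µM (NPC, 8-point) in primary screens, 11-point in follow-ups.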"}, "[3]": {"assay": "qHTS of pediatric cancer cell lines to identify multiple opportunities for drug repurposing: Confirmatory screen for DAOY cells (AID 1347114)", "settings": "DAOY medulloblastoma cells viability, cytotoxicity qHTS; series mostly up to 45.9 µM", "in_short": "(§2)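 Viability measured as metabolically active cells via CellTiter-Glo luminescence following 48 hours of compound exposure, 11-point dilutions in confirmatory testing. 500-1,000 cells/well plated 5 hours before dosing; controls were DMSO and 2.3 µM bortezomib.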"}, "[4]": {"assay": "qHTS of pediatric cancer cell lines to identify multiple opportunities for drug repurposing: Confirmatory screen for NB-EBc1 cells (AID 1347115)", "settings": "NB-EBc1 neuroblastoma cells, viability (cytotoxicity); series mostly up to 45.9 µM", "in_short": "as §1"}, "[5]": {"assay": "qHTS of pediatric cancer cell lines to identify multiple opportunities for drug repurposing: Confirmatory screen for SJ-GBM2 cells (AID 1347116)", "settings": "SJ-GBM2 glioblastoma cells, viability; series mostly up to 45.9 µM", "in_short": "as §2"}, "[6]": {"assay": "qHTS of pediatric cancer cell lines to identify multiple opportunities for drug repurposing: Confirmatory screen for NB1643 cells (AID 1347109)", "settings": "NB1643 neuroblastoma cell viability", "in_short": "as §1"}, "[7]": {"assay": "qHTS of pediatric cancer cell lines to identify multiple opportunities for drug repurposing: Confirmatory screen for A673 cells (AID 1347110)", "settings": "A673 Ewing sarcoma cell viability; series mostly up to 45.9 µM", "in_short": "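Forty-eight-hour viability assay. Follow-up compounds ran at 11-point dilutions; positive control bortezomib at 2.3 uM final, neutral control DMSO.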"}, "[8]": {"assay": "qHTS of pediatric cancer cell lines to identify multiple opportunities for drug repurposing: Confirmatory screen for SK-N-MC cells (AID 1347111)", "settings": "SK-N-MC cell viability; series mostly up to 45.9 µM", "in_short": "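Seed 500-1,000 cells/well; rest 5 h at 37 degrees C. Pin-transfer compounds, 11-point titration. Incubate 48 h. Add CellTiter-Glo, 15 min RT, read luminescence.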"}, "[9]": {"assay": "qHTS of pediatric cancer cell lines to identify multiple opportunities for drug repurposing: Confirmatory screen for LAN-5 cells (AID 1347113)", "settings": "LAN-5 neuroblastoma cell viability; series mostly up to 45.9 µM", "in_short": "as §1"}}, "note": "“And” between values parts separate entries of the source, which are not always exact repeats. Equal values may be shown once. Inconclusive results, whose numbers are uncertain, are shown with a selection of clear calls. Potencies beside an inconclusive call are fits to weak or partial responses and may not hold up. The source made the active and inactive calls. The call rests on the fitted dose curve; in most records, active means well fitted curve in the direction sought with a large enough effect; inconclusive means small, poorly fitted or top-dose-only effect, or another doubt; inactive means no such curve, though single readings can be large; an effect the other way counts as inactive or inconclusive. Potency means the concentration at half of the fitted maximal effect.", "data": [{"molecule": "C[C@]12C=CC(=O)C=C1CC[C@H]1[C@@H]3C[C@@H](O)[C@](O)(C(=O)CO)[C@@]3(C)C[C@H](O)[C@@]12F", "values": [{"measurement": "Potency", "setting": "[1]", "result": "inactive"}, {"measurement": "Potency", "setting": "[2]", "result": "inconclusive: 11700 nM [cytotoxic, partial curve]"}, {"measurement": "Potency", "setting": "[3]", "result": "inactive"}, {"measurement": "Potency", "setting": "[4]", "result": "inactive"}, {"measurement": "Potency", "setting": "[5]", "result": "inconclusive: 10400 nM [cytotoxic, full curve]"}]}, {"molecule": "CC#C[C@]1(O)CC[C@H]2[C@@H]3CCC4=CC(=O)CCC4=C3[C@@H](c3ccc(N(C)C)cc3)C[C@@]21C", "values": [{"measurement": "Potency", "setting": "[1]", "result": "inconclusive: 29.9 µM [cytotoxic, single point] and active: 743 nM"}, {"measurement": "Potency", "setting": "[6]", "result": "inconclusive: 20800 nM [cytotoxic, single point]"}, {"measurement": "Potency", "setting": "[7]", "result": "inconclusive: 29300 nM [cytotoxic, single point]"}, {"measurement": "Potency", "setting": "[8]", "result": "inconclusive: 29300 nM [cytotoxic, single point]"}, {"measurement": "Potency", "setting": "[2]", "result": "inactive"}, {"measurement": "Potency", "setting": "[9]", "result": "inconclusive: 36900 nM [cytotoxic, single point]"}, {"measurement": "Potency", "setting": "[3]", "result": "inconclusive: 18500 nM [cytotoxic, partial curve]"}, {"measurement": "Potency", "setting": "[5]", "result": "inactive"}]}, {"molecule": "CN1CC[C@@H](c2c(O)cc(O)c3c(=O)cc(-c4ccccc4Cl)oc23)[C@@H](O)C1", "values": [{"measurement": "Potency", "setting": "[1]", "result": "active: 296 nM"}, {"measurement": "Potency", "setting": "[9]", "result": "active: 465 nM"}, {"measurement": "Potency", "setting": "[4]", "result": "inactive"}, {"measurement": "Potency", "setting": "[5]", "result": "active: 369 nM"}]}, {"molecule": "CC(C(=O)O)c1ccc2c(c1)CC(=O)c1ccccc1S2", "note": "(centres undefined)", "values": [{"measurement": "Potency", "setting": "[1]", "result": "inconclusive: 18.7 nM [cytotoxic, full curve]"}, {"measurement": "Potency", "setting": "[6]", "result": "inactive"}, {"measurement": "Potency", "setting": "[7]", "result": "inconclusive: 36900 nM [cytotoxic, single point]"}, {"measurement": "Potency", "setting": "[8]", "result": "inactive"}, {"measurement": "Potency", "setting": "[2]", "result": "inconclusive: 52.2 nM [rising, full curve]"}, {"measurement": "Potency", "setting": "[9]", "result": "inconclusive: 6570 nM [rising, partial curve]"}, {"measurement": "Potency", "setting": "[3]", "result": "inactive"}, {"measurement": "Potency", "setting": "[5]", "result": "inactive"}]}, {"molecule": "CCN(CC)CCCC(C)Nc1ccnc2cc(Cl)ccc12", "note": "(centres undefined)", "values": [{"measurement": "Potency", "setting": "[1]", "result": "inconclusive: 23.5 nM [cytotoxic, full curve, poor fit]"}, {"measurement": "Potency", "setting": "[8]", "result": "inconclusive: 32900 nM [cytotoxic, single point]"}, {"measurement": "Potency", "setting": "[2]", "result": "inactive"}, {"measurement": "Potency", "setting": "[4]", "result": "inactive"}, {"measurement": "Potency", "setting": "[5]", "result": "inconclusive: 369 nM [rising, full curve]"}]}, {"molecule": "CC[C@]12C=CCN3CC[C@@]4(c5cc([C@@]6(C(=O)OC)C[C@H]7C[C@@H](C(C)(F)F)CN(Cc8c6[nH]c6ccccc86)C7)c(OC)cc5N(C)[C@H]4[C@@](O)(C(=O)OC)[C@H]1OC(C)=O)[C@@H]32", "values": [{"measurement": "Potency", "setting": "[1]", "result": "inconclusive: 26.4 nM [cytotoxic, full curve]"}, {"measurement": "Potency", "setting": "[6]", "result": "inactive"}, {"measurement": "Potency", "setting": "[2]", "result": "inactive"}, {"measurement": "Potency", "setting": "[9]", "result": "inactive"}, {"measurement": "Potency", "setting": "[3]", "result": "inactive"}, {"measurement": "Potency", "setting": "[4]", "result": "inactive"}, {"measurement": "Potency", "setting": "[5]", "result": "inactive"}]}, {"molecule": "CCOC(=O)N1CCN([N+]([O-])=NOc2ccc([N+](=O)[O-])cc2C#N)CC1", "values": [{"measurement": "Potency", "setting": "[1]", "result": "inconclusive: 1320 nM [cytotoxic, full curve]"}, {"measurement": "Potency", "setting": "[2]", "result": "inconclusive: 2610 nM [cytotoxic, full curve]"}, {"measurement": "Potency", "setting": "[9]", "result": "active: 4650 nM"}, {"measurement": "Potency", "setting": "[3]", "result": "active: 2330 nM"}, {"measurement": "Potency", "setting": "[4]", "result": "inconclusive: 3290 nM [cytotoxic, full curve]"}, {"measurement": "Potency", "setting": "[5]", "result": "inconclusive: 20800 nM [cytotoxic, partial curve, poor fit]"}]}, {"molecule": "CC(C)c1nn(-c2c(Cl)cccc2Cl)c2nc(Cc3ccc(OCCO)cc3)[nH]c(=O)c12", "values": [{"measurement": "Potency", "setting": "[1]", "result": "active: 372 nM"}, {"measurement": "Potency", "setting": "[6]", "result": "inactive"}, {"measurement": "Potency", "setting": "[8]", "result": "active: 117 nM"}, {"measurement": "Potency", "setting": "[2]", "result": "active: 82.7 nM"}, {"measurement": "Potency", "setting": "[3]", "result": "active: 208 nM"}, {"measurement": "Potency", "setting": "[4]", "result": "inactive"}, {"measurement": "Potency", "setting": "[5]", "result": "inconclusive: 131 nM [cytotoxic, full curve]"}]}, {"molecule": "COc1ccc(C=Cc2cc(OC)c(OC)c(OC)c2)cc1NC(=O)[C@H](N)CO", "values": [{"measurement": "Potency", "setting": "[1]", "result": "inconclusive: 10.5 nM [cytotoxic, full curve]"}, {"measurement": "Potency", "setting": "[6]", "result": "inconclusive: 117 nM [cytotoxic, full curve]"}, {"measurement": "Potency", "setting": "[3]", "result": "inconclusive: 65.7 nM [cytotoxic, full curve]"}]}, {"molecule": "COCc1c(C(C)C)nc(C(C)C)c(/C=C/[C@@H](O)C[C@@H](O)CC(=O)O)c1-c1ccc(F)cc1", "values": [{"measurement": "Potency", "setting": "[1]", "result": "inconclusive: 1330 nM [cytotoxic, full curve]"}, {"measurement": "Potency", "setting": "[6]", "result": "inconclusive: 6570 nM [cytotoxic, full curve]"}, {"measurement": "Potency", "setting": "[2]", "result": "inconclusive: 329 nM [cytotoxic, full curve]"}, {"measurement": "Potency", "setting": "[5]", "result": "active: 2610 nM"}]}, {"molecule": "COc1c(C)c2c(c(O)c1C/C=C(\\C)CCC(=O)O)C(=O)OC2", "values": [{"measurement": "Potency", "setting": "[1]", "result": "inconclusive: 750 nM [cytotoxic, full curve]"}, {"measurement": "Potency", "setting": "[6]", "result": "inconclusive: 1310 nM [cytotoxic, full curve, poor fit]"}, {"measurement": "Potency", "setting": "[8]", "result": "inconclusive: 657 nM [cytotoxic, full curve, poor fit]"}, {"measurement": "Potency", "setting": "[9]", "result": "inconclusive: 1170 nM [cytotoxic, full curve, poor fit]"}, {"measurement": "Potency", "setting": "[3]", "result": "inconclusive: 4140 nM [cytotoxic, partial curve]"}, {"measurement": "Potency", "setting": "[4]", "result": "inconclusive: 737 nM [cytotoxic, full curve, poor fit]"}, {"measurement": "Potency", "setting": "[5]", "result": "inconclusive: 1470 nM [cytotoxic, full curve, poor fit]"}]}]}
